Assay results reported in doi:10.1101/2023.05.04.539414.
Results are given in words; binding and its absence hold for the method and conditions named. Some binding calls cover weakened binding; strength is not graded here.

T1: TOL-1 ECR (residues D26-S996), purified (Caenorhabditis elegans) (UniProt Q9N5Z3)
T1 sequence (chain, N-linked glycans on eight asparagine residues (seen in the crystal structure)): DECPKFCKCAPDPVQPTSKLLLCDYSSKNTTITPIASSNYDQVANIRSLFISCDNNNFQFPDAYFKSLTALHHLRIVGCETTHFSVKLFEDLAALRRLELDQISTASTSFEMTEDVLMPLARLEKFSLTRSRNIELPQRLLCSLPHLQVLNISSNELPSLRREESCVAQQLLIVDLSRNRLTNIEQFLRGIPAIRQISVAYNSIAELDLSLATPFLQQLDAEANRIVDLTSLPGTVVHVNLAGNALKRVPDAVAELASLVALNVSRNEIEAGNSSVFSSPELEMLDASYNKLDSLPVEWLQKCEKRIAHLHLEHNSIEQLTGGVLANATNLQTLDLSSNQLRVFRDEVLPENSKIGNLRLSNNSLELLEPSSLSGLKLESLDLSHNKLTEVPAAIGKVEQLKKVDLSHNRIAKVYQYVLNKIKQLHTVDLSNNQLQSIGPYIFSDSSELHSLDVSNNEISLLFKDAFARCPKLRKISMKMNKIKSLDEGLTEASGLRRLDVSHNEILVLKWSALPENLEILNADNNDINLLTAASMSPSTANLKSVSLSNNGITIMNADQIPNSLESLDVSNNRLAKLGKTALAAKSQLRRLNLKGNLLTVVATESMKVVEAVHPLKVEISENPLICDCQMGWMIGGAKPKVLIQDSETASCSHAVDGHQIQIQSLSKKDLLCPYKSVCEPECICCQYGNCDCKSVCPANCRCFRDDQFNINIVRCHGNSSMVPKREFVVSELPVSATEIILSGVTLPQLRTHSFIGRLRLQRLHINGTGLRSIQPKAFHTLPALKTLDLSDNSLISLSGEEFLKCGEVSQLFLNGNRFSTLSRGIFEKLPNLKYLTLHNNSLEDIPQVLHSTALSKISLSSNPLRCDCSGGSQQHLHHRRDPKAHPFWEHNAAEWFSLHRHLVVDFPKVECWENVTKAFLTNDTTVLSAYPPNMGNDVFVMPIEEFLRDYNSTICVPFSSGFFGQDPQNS

B1: LAT-1 Lec domain (residues T32-P136), purified (domain or fragment, UniProt G5EDW2 32-136)
chain: TTDESGTISHTICDGEAAELSCPAGKVISIVLGNYGRFSVAVCLPDNDIVPSNINCQNHKTKSILEKKCNGDSMCYFTVDKKTFTEDPCPNTPKYLEVKYNCVVP
B2: LAT-1 ECR (residues S28-T552), purified (domain or fragment, UniProt G5EDW2 28-552)
chain: SNKPTTDESGTISHTICDGEAAELSCPAGKVISIVLGNYGRFSVAVCLPDNDIVPSNINCQNHKTKSILEKKCNGDSMCYFTVDKKTFTEDPCPNTPKYLEVKYNCVVPATTTTTTTTTSTTTTDSSLIVDEEEEAQKDALNSDVIKPVKKKEDVFCSATNRRGVNWQNTKSGTTSSAPCPEGSSGKQLWACTEEGQWLTEFPNSAGCESNWISSRNSVLSGVISSEDVSGLPEFLRNLGSETRRPMVGGDLPKVLHLLEKTVNVIAEESWAYQHLPLSNKGAVEVMNYMLRNQEIWGSWDVTKRKEFASRFILAAEKAMVASAKGMMTSAESNVIVQPAITVEISHKIKMSSQPTDYILFPSAALWNGQNVDNVNIPRDAILKINKDETQVFFSSFDNLGAQMTPSDVTVAIAGTDQTEVRKRRVVSRIVGASLIENGKERRVENLTQPVRITFYHKESSVRHLSNPTCVWWNHHELKWKPSGCKLSYHNKTMTSCDCTHLTHFAVLMDVRGHDLNEIDQTLLT

Assays:
[1] = molecular target: T1, TOL-1 ECR (residues D26-S996), purified (Caenorhabditis elegans); assay: SEC
[2] = molecular target: T1, TOL-1 ECR (residues D26-S996), purified (Caenorhabditis elegans); assay: crystal structure
[3] = molecular target: T1, TOL-1 ECR (residues D26-S996), purified (Caenorhabditis elegans); assay: cryo-EM structure

| Binder | binding [1] | binding [2] | binding [3] |
| --- | --- | --- | --- |
| B1 | binds | binds | – |
| B2 | binds | – | binds |
